Test results taken from paper PMC6636133.
Results are given in words; binding and its absence hold for the method and conditions named. For part of these data: Binding seen in cells or lysates may run through a third protein. Some results given as binding are weak or reduced against the parent protein; the word gives no strength. Blank lines part the entries; values can stand above or below the substance they belong to.

By UniProt entry, the sequences of proteins in these tests, tags left out. Residues count along the entry.
UniProt O00327: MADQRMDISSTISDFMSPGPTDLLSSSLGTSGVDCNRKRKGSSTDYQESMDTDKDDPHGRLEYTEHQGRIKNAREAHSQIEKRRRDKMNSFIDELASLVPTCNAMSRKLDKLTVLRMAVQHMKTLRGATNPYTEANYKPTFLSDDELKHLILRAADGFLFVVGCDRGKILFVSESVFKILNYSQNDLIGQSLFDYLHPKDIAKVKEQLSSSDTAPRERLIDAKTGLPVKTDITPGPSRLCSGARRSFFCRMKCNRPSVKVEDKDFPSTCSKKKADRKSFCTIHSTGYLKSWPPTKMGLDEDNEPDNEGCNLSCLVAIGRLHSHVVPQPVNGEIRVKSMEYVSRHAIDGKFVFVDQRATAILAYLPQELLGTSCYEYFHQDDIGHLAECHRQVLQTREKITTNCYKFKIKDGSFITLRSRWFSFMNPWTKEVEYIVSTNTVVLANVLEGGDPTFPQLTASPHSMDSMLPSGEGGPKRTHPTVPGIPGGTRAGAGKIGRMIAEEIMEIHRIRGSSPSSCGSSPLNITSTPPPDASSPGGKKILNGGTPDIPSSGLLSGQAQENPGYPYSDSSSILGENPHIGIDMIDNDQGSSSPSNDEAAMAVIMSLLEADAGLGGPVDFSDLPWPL
UniProt Q04206: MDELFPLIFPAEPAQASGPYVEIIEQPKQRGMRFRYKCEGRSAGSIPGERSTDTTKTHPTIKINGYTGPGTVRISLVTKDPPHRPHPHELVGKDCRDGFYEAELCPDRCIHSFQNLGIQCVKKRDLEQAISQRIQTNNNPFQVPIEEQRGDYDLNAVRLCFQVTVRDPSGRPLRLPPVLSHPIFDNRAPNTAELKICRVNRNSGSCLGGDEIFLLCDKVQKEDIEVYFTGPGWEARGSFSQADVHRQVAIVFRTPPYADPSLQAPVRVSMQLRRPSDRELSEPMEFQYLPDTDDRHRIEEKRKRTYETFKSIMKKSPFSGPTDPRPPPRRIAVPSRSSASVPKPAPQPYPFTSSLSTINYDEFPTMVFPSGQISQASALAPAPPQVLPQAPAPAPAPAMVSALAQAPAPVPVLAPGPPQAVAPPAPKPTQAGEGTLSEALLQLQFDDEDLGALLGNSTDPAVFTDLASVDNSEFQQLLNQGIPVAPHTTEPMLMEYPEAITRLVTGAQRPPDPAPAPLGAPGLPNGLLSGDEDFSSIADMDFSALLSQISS
UniProt Q92793: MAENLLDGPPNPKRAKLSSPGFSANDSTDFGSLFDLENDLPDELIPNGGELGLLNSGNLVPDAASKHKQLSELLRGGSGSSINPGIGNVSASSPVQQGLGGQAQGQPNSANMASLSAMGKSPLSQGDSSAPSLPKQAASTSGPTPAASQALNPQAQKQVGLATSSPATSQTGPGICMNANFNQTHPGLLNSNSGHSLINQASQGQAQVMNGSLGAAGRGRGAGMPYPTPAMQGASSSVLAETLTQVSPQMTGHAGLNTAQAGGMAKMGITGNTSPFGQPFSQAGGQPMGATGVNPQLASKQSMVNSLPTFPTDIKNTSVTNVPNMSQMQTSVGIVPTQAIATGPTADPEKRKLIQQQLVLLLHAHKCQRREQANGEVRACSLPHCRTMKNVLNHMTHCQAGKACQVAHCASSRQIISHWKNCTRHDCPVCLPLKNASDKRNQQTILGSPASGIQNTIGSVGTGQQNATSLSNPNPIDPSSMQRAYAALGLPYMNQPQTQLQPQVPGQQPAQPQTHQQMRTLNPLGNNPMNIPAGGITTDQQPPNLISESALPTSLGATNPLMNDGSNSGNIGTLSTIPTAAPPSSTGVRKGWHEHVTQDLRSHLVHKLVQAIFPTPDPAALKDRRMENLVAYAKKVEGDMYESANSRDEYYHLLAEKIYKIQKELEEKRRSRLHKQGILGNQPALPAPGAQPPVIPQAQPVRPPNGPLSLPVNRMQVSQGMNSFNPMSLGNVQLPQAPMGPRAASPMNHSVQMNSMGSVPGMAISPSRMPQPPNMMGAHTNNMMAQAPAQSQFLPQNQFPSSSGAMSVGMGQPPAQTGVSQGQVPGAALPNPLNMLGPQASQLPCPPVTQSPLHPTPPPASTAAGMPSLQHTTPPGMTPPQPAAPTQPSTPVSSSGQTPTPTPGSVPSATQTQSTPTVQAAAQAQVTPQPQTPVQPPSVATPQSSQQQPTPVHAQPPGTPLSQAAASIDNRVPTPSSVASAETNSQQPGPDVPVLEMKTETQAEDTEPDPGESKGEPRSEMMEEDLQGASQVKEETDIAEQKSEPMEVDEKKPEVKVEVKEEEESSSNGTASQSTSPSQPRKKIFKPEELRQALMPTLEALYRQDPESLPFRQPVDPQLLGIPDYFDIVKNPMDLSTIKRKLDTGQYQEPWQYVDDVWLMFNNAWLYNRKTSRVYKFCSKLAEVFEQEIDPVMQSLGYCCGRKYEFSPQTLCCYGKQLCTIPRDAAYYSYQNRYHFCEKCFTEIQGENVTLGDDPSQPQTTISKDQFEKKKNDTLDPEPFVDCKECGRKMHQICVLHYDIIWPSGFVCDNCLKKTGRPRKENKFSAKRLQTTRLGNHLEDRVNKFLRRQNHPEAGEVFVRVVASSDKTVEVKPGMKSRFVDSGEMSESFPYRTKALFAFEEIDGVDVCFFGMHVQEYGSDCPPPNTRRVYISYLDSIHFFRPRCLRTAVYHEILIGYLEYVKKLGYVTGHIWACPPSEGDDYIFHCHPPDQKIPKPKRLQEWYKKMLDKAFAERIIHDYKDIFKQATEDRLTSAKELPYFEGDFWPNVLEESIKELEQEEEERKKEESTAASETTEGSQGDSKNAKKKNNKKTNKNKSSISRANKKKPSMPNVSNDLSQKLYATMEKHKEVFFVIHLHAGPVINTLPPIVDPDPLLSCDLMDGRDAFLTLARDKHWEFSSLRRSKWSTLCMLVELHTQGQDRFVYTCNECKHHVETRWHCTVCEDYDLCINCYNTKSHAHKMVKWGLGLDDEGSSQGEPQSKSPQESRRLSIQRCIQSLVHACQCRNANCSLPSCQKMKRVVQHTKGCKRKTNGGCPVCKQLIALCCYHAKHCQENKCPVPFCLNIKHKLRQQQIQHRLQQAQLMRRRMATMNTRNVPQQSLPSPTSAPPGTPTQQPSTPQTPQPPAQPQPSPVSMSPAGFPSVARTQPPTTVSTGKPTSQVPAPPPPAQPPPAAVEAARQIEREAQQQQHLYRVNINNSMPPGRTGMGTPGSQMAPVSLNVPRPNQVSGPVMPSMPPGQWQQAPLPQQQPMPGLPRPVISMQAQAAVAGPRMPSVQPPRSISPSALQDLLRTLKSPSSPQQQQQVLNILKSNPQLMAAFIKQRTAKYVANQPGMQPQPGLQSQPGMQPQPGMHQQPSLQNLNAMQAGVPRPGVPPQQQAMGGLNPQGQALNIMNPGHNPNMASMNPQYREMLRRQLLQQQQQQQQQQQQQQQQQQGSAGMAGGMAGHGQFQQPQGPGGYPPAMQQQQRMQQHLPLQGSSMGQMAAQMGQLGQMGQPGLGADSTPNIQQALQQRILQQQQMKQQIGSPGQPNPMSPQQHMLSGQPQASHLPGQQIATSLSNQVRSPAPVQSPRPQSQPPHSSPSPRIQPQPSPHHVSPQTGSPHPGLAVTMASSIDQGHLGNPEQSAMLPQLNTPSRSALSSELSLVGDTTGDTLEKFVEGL
UniProt P19838, residues 1-433: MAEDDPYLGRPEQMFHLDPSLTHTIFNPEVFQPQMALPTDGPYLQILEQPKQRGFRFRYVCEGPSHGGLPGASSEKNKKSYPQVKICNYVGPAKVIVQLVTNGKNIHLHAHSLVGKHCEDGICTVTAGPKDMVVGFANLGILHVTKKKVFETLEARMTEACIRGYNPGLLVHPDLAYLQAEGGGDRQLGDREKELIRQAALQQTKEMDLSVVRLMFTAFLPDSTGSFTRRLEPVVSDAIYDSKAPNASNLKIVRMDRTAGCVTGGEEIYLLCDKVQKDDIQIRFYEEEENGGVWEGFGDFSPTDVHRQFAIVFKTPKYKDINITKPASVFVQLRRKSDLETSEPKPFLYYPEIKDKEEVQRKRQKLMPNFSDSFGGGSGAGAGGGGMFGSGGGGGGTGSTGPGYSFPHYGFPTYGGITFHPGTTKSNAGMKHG

Tests used:
[1] = target: endogenous BMAL1 (human (endogenous in ZR-75-30)) (UniProt O00327); assay: co-IP; endogenous proteins of ZR-75-30 cells; immunoprecipitation with anti-BMAL1 antibody, Western blot with anti-p65; IgG as negative control
pBIND-p65 (human) = pBIND-p65 (human) (UniProt Q04206); assay: two-hybrid; CheckMate mammalian two-hybrid system (Promega); pACT-BMAL1 and pBIND-p65 with the pG5-luc reporter in COS-7 cells; luciferase after 24 h
[2] = target: HA-BMAL1 (brain and muscle arnt-like 1) (human) (UniProt O00327); assay: co-IP; HEK 293T cells transfected with tagged proteins; immunoprecipitation by one tag, Western blot by the other; for CBP and p65 also with overexpressed HA-BMAL1
[3] = target: FLAG-p65 (NF-κB p65) (human) (UniProt Q04206); assay: as above
[4] = target: Myc-CBP (CREB binding protein) (UniProt Q92793); assay: as above

Substance: endogenous p65 (from UniProt Q04206 1-551)
binding [1]: binds

Substance: pACT-BMAL1 (from UniProt O00327 1-626)
binding (pBIND-p65 (human)): binds

Substance: HA-BMAL1 (brain and muscle arnt-like 1) (from UniProt O00327 1-626)
binding [3]: binds | binding [4]: binds

Further lines, results first:

binding [2]: no binding
Substance: Flag-p50 (NF-κB p50) (from UniProt P19838 1-433)

binding [2]: binds
Substance: FLAG-p65 (NF-κB p65) (from UniProt Q04206 1-551)
